The values below come from article PMC11862924, “Phenylpyrazoles as Inhibitors of the m^6A RNA-Binding Protein YTHDF2” (JACS Au, 2025).

For one data set, the target named is T1, YTHDC2 YTH domain (UniProt Q9H6S0).
T1 sequence (looked up): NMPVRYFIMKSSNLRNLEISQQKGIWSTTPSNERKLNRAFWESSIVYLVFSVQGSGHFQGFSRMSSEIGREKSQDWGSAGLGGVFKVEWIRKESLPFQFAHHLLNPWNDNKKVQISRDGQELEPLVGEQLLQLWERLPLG
Put plainly: EMSA. Conditions: 20 nM RNA, 10 uM YTHDC2 chosen; m6A at position 12; EMSA: 20 mM HEPES pH 8.2, 50 mM NaCl, 0.05% Triton X-100, 5% glycerol, 4 C, 0.5x TBE gel; recombinant protein; residues 1285-1424.

A further data set concerns the target T2, YTHDF2 YTH domain (UniProt Q9Y5A9).
T2 sequence (looked up): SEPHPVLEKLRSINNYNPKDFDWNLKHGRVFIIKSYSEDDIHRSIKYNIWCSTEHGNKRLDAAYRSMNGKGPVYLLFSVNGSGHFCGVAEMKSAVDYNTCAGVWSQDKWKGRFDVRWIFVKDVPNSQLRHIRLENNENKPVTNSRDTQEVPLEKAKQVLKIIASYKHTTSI
The experiment in a line: FP competition. Particulars: against FAM-m6A RNA, no inhibitory activity; none; EMSA: 20 mM HEPES pH 8.2, 50 mM NaCl, 0.05% Triton X-100, 5% glycerol, 4 C, 0.5x TBE gel; recombinant …; residues 383-553; protein details: N-terminal His6 and GST; letters put together from the description.

For at least one entry, the source does not settle the construct or the ends of the probe. For some assays here: No signal at the amounts used counts as a negative. Tags and fusion partners may be left off the protein sequences shown. For some assays here: At least one verdict rests on a figure or table, not on a statement of the authors.

On to “UUCUUCUGUGGACUGUG [FAM-17mer m6A RNA probe]”, for which, in the data set with YTHDC2 YTH domain, the binding result is “binds”.

Consider “UUCUUCUGUGGACUGUG [unmethylated RNA (A RNA)]”, for which the binding result with YTHDF2 YTH domain is “no binding”.
